From article PMC10238270

Protein sequences, listed by entry. Tags and fused reporters are not part of them.
UniProt Q9Y3Z3: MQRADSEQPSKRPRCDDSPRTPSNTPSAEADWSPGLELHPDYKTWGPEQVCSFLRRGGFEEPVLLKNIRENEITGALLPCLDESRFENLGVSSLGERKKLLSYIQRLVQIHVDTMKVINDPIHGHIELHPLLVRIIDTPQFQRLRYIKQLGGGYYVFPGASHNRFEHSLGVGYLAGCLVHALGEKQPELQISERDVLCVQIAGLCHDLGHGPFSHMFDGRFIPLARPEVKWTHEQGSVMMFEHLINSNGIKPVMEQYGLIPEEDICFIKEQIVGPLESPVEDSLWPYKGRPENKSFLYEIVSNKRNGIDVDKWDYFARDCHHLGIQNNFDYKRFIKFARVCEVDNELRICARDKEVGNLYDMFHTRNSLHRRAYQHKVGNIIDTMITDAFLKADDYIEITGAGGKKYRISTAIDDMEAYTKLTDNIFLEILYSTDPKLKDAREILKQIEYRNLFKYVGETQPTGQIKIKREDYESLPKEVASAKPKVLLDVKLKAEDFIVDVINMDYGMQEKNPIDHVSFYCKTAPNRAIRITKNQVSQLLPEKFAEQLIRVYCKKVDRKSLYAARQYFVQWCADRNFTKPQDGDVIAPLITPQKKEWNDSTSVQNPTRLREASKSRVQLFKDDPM
UniProt Q93009: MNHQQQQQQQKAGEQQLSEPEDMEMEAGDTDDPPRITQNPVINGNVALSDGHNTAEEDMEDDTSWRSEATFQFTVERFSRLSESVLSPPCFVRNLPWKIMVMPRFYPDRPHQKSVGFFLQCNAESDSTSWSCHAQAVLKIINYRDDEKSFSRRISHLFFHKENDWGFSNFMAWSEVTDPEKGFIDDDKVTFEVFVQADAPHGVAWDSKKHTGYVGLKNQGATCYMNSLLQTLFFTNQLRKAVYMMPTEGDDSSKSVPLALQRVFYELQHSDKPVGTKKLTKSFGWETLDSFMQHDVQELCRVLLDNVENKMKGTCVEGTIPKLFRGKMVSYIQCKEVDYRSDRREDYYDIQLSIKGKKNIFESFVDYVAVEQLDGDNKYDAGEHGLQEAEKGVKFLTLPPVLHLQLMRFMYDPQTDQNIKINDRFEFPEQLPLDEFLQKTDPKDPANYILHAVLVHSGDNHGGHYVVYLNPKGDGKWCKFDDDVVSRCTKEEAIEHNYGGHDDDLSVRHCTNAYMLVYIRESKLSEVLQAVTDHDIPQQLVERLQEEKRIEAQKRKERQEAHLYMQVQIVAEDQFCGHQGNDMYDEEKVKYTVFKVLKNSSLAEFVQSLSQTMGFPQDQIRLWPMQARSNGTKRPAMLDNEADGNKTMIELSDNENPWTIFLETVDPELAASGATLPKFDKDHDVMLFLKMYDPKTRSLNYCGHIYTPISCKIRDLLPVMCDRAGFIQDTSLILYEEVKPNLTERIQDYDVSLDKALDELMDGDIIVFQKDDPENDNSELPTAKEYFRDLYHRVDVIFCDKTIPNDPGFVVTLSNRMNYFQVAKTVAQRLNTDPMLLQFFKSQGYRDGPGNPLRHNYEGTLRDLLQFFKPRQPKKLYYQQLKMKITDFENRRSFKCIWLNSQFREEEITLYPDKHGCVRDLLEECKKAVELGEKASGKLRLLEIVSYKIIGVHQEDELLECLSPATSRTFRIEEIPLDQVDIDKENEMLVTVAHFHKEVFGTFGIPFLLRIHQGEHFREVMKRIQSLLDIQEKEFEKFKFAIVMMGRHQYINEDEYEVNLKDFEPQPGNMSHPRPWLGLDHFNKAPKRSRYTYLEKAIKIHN

Molecular target: Flag-tagged SAMHD1 (human) (UniProt Q9Y3Z3)
Assay: affinity purification with mass spectrometry; Flag-SAMHD1 overexpressed in HEK293 cells for 48 h, IP lysis, Flag beads overnight at 4 °C, washed with PBS, gel bands digested for mass spectrometry

For “USP7 (from UniProt Q93009 1-1102) (enzyme)”, which binding is on record?
Its binding is “binds”.

No constants are given. Whether binding was seen depends on the method and setting. Binding seen in cells or lysates may run through a third protein. A yes stands for co-enrichment or nearness to the bait. Other partners may have been found.
